Reference: US9353156B2, “Oligopeptide compounds and uses thereof” (Cytovation AS, priority 2010, dated 2016)
Not every detail of the peptide structures is certain; ends, links or a residue may be inferred.

Tests used:
[1] = test system: 142 cells (normal cell line); assay: LIVE/DEAD viability assay, 142 normal cells; assay type: cell-based
[2] = test system: HFF1 (human foreskin fibroblasts); assay: LIVE/DEAD viability assay, HFF1 normal cells; assay type: cell-based
143 carcinoma cells = assay: LIVE/DEAD viability assay, 143 carcinoma cells; assay type: cell-based
HOS sarcoma cell line = assay: LIVE/DEAD viability assay, HOS sarcoma cells; assay type: cell-based
[3] = test system: 142 cells, HFF1 cells, 143 carcinoma cells, HOS sarcoma cell line (FIG. 5); assay: LIVE/DEAD kit, fluorescence microscopy of monolayers (FIG. 5, text); assay type: cell-based
Source text: The LIVE/DEAD® Viability/Cytotoxicity kit employs a fluorescent dye to assess mammalian cell viability. Calcein AM and ethidium homodimer-1 (EthD-1) are found to be optimal dyes for this purpose. […] cells are distinguished from dead cells by the presence of intracellular esterase activity, determined by enzymatic conversion of non-fluorescen calcein AM to intensely fluorescent calcein. Calcein, which is a polyanionic dye, is well retained inside living cells producing an intense uniform green fluorescence. EthD-1 is excluded by intact membranes of viable cells, but it will enter cells with damaged cell membrane and bind to nucleic acids, producing a bright red fluorescence in dead cells. The protocol for using the live/dead kit is supplied by the manufacturer.
To quantify the cytotoxic action of Peptide 1, 20 000 cells were placed in 24 well multiwell dishes. After 48 hrs, peptide 1 was added to the wells at concentrations ranging from, 0.1 to 3 5 μg/ml. After 1-3-6 hrs the cellular viability was assessed using the Molecular Probes LIVE/DEAD kit. The cells were briefly washed in phosphate buffered saline (PBS) whereupon 10 μM EthD-1 and 5 μM calcein was added to the wells. The cells were then incubated in the tissue culture incubator at 37° C. for 30 min.
The cells were then observed using an inverted fluorescence microscope (Nikon Eclipse 2000E, Tokyo, Japan) equipped with FITC (green fluorescence) and TRITC (red fluorescence) filter optics. The fluorescent cells were then photographed at 100× magnification. The proportion of viable cells (cells with green fluorescence) and the proportion of dead cells (red fluorescence) where then assessed by counting 100 cells.
No red fluorescent cells were observed indicating 100% viability (FIG. 5).

[4] = Liposome dye efflux, negatively charged phospholipids; conditions: 200 nm liposomes PBPS:EYL, ANTX/DPX dye release
[5] = Liposome dye efflux, neutral phospholipids; conditions: EYL liposomes; less than on negatively charged phospholipids
E. coli = assay: Bacteriocidal activity, E. coli; assay type: cell-based; conditions: incubated for two hours
S. aureus = assay: Bacteriocidal activity, S. aureus; assay type: cell-based; conditions: incubated for two hours
Enterococcus = assay: Bacteriocidal activity, Enterococcus; assay type: cell-based; conditions: incubated for two hours
[6] = test system: 4T1 mammary carcinoma tumour; assay: 4T1 mammary carcinoma subcutaneous tumour model, local peptide injection; assay type: in vivo, BALBc mice
[7] = test system: plasma membrane / nucleus of treated cells; assay: Scanning electron microscopy and FITC-peptide immunofluorescence of treated cells; assay type: cell-based
[8] = Peptide concentration 2.5 μg/ml

With “Ac-YGRKKRRQRRRGKTLRVAKAIYKRYIE-NH2 [Peptide 1]” the “Proportion of living cells (%)” value [1, 8] was 99%, the “Proportion of living cells (%)” value ([1]; Peptide concentration 5 μg/ml) was 100% and the “Proportion of living cells (%)” value ([1]; Peptide concentration 10 μg/ml) was 99%. The “Proportion of living cells (%)” value ([1]; Peptide concentration 15 μg/ml) was 90%, the “Proportion of living cells (%)” value ([1]; Peptide concentration 20 μg/ml) was 97% and the “Proportion of living cells (%)” value ([1]; Peptide concentration 25 μg/ml) was 89%. For the same substance, the “Proportion of living cells (%)” value ([1]; Peptide concentration 30 μg/ml) was 90%, the “Proportion of living cells (%)” value ([1]; Peptide concentration 35 μg/ml) was 90% and the “Proportion of living cells (%)” value [2, 8] was 100%. The “Proportion of living cells (%)” value ([2]; Peptide concentration 5 μg/ml) was 99%, the “Proportion of living cells (%)” value ([2]; Peptide concentration 10 μg/ml) was 100% and the “Proportion of living cells (%)” value ([2]; Peptide concentration 15 μg/ml) was 95%. The “Proportion of living cells (%)” value ([2]; Peptide concentration 20 μg/ml) was 98%, the “Proportion of living cells (%)” value ([2]; Peptide concentration 25 μg/ml) was 90% and the “Proportion of living cells (%)” value ([2]; Peptide concentration 30 μg/ml) was 88%. For the same substance, the “Proportion of living cells (%)” value ([2]; Peptide concentration 35 μg/ml) was 89%, the “Proportion of living cells (%)” value (143 carcinoma cells; [8]) was 90% and the “Proportion of living cells (%)” value (143 carcinoma cells; Peptide concentration 5 μg/ml) was 90%. The “Proportion of living cells (%)” value (143 carcinoma cells; Peptide concentration 10 μg/ml) was 89%, the “Proportion of living cells (%)” value (143 carcinoma cells; Peptide concentration 15 μg/ml) was 75% and the “Proportion of living cells (%)” value (143 carcinoma cells; Peptide concentration 20 μg/ml) was 50%. The “Proportion of living cells (%)” value (143 carcinoma cells; Peptide concentration 25 μg/ml) was 45%, the “Proportion of living cells (%)” value (143 carcinoma cells; Peptide concentration 30 μg/ml) was 30% and the “Proportion of living cells (%)” value (143 carcinoma cells; Peptide concentration 35 μg/ml) was 29%. For the same substance, the “Proportion of living cells (%)” value (HOS sarcoma cell line; [8]) was 90%, the “Proportion of living cells (%)” value (HOS sarcoma cell line; Peptide concentration 5 μg/ml) was 91% and the “Proportion of living cells (%)” value (HOS sarcoma cell line; Peptide concentration 10 μg/ml) was 88%. The “Proportion of living cells (%)” value (HOS sarcoma cell line; Peptide concentration 15 μg/ml) was 78%, the “Proportion of living cells (%)” value (HOS sarcoma cell line; Peptide concentration 20 μg/ml) was 35% and the “Proportion of living cells (%)” value (HOS sarcoma cell line; Peptide concentration 25 μg/ml) was 8%. For the same substance, the “Proportion of living cells (%)” value (HOS sarcoma cell line; Peptide concentration 30 μg/ml) was 10%, the “Proportion of living cells (%)” value (HOS sarcoma cell line; Peptide concentration 35 μg/ml) was 2% and the “proportion of dead cells” value ([3]; 15 μg/ml of peptide) was “fairly large proportion of dead cells”. The dead cells ([3]; 30 μg/ml of peptide) was roughly 100%, the “green/red fluorescence (viability) versus control” value ([3]; 0.1, 1, and 5 μg/ml of peptide, control: no red cells, 100% viability) was “same fluorescence was observed” and the “time at which the lytic action occurred” value ([3]; assessed at 1, 3 and 6 hrs, no further changes at 3 and 6 hours) was 1 h. For the same substance, the “dye release, half maximal effect” value [4] was 8.5 µg/mL, the EC50 ([4]; read-out: dye release, half maximal effect) was 2460 nM and the “dye release effect on neutral phospholipids” value [5] was “some effects”. For the same substance, the bacteriocidal activity (E. coli) was “killing bacteria within two hours”, the bacteriocidal activity (S. aureus) was “killing bacteria within two hours” and the bacteriocidal activity (Enterococcus) was “killing bacteria within two hours”. The “histological analysis of tumours (H&E)” value ([6]; excised 4T1 tumours after peptide treatment) was “severe necrosis”, the tumour growth ([6]; three local injections of 400 μg peptide into 4T1 tumours, vs scrambled peptide control) was “strong growth-inhibitory effect” and the “animal survival (Kaplan Meier)” value ([6]; treated vs untreated animals with subcutaneous 4T1 tumours) was “significant survival advantage”. The “plasma membrane integrity (scanning electron microscopy)” value ([7]; after peptide treatment) was “total disintegration of the plasma membrane” and the “intracellular localisation of FITC-labelled peptide” value ([7]; immunofluorescence shortly after treatment) was “accumulates in the nucleus”.
